# Measurements reported in PubChem BioAssay AID493014 (National Center for Advancing Translational Sciences (NCATS), 2011).
# This is one part of the list. The main result of the screen is listed elsewhere. These columns were measured beside it and carry no call. Most of these compounds were active or inconclusive in the main read-out, so they are no random draw. Potencies come from curve fits of mixed quality, noted in brackets.
# Assay: qHTS Assay to Find Inhibitors of Chronic Active B-Cell Receptor Signaling
# Details: ABC-DLBCL IkBa-CBG/CBR reporter, luminescence ratio (green luciferase fused to IkBa over red control in TMD8 lymphoma cells), 4 h
# Text: NIH Molecular Libraries Probe Production Network [MLPCN] NIH Chemical Genomics Center [NCGC] MLPCN Grant: 1 R03 DA031086-01A1 PI Name: Dr. R. Eric Davis NCGC Assay Overview: Diffuse large B-cell lymphoma (DLBCL) is the most common category of non-Hodgkin lymphoma, with ~20,000 new cases per year in the United States. DLBCL should be regarded as a collection of different neoplasms. Microarray gene expression analysis has defined two principal types of DLBCL, named for their similarity to normal B cell stages or activation states: a germinal center B-cell (GCB) type, and an activated B-cell (ABC) type. In ABC-DLBCL, a constitutive high-level activity of the NF-kappaB family of transcription factors has been observed (1) and NF-kappaB target genes are more highly expressed in ABC primary tumors than in GCB tumors. Functional studies have shown a constitutive high-level activity of the IkappaB (inhibitor of kappa-B) kinase (IKK) complex. […] Further analysis of DLBCL primary tumors for NF-kappaB target gene expression imply that although CARD11 is required for constitutive IKK activity in all ABC-DLBCL lines, mutations in CARD11 may be the root cause of IKK activation only in lines or tumors with such mutations. In other words, CARD11 mutations may explain NF-kappaB activation in only 10% of ABC-DLBCL cases. […] This process has been termed 'chronic active BCR signaling' (CABS). The goal of this screen is to find small-molecule inhibitors of the CABS pathway found in ABC-DLBCL lines using a cell-based assay that measures IkappaBalpa stability, which has already been extensively validated in the OCI-Ly3 line (PubChem AID:445; REF: 4). […] The assay uses green (CBG68) and red (CBR) emitting beetle luciferases [Chroma-GloTM developed by Promega Corp.] where the green luciferase is fused to IkappaBalpha and the red luciferase is present in its native state. Both luciferase genes are stably present in the TMD8 human ABC DLBCL cell line, but their expression is under the control of tetracycline-inducible promoters. Following the addition of doxycycline to induce expression of the luciferases, the green luminescence in control cultures rises only slowly because the CBG fusion partner IkappaBalpha is targeted by IKK activity for rapid degradation. In contrast, green luminescence rises rapidly in the presence of proteasome inhibitors or IKK inhibitors. The rise in red luminescence of CBR is not affected by proteasome or IKK inhibitors, and serves as normalization for cell number and nonspecific effects. Compounds were screened as a concentration-titration series that ranged from 46 uM to 3 nM.
# NCGC Assay Protocol Summary: Cells were seeded in 1536-well plates at 5000 cells/4uL in IMDM medium containing 0.5% FBS, w/o phenol red, 1% penicillin/streptomycin. Then, 23 nL of compounds or DMSO were delivered to each well using a pin tool. One uL 20ng/ml doxycycline was then dispensed into white solid 1536-well plates and the plates were incubated at 37C/5% C02 in a cell incubator for 4 hrs. Then 4 uL luminescent substrate mix (in-house prepared: 150 mM Tris-Cl, pH 7.6, 3 mM MgCl2, 1% Triton X-100, 5 mM DTT, 0.2 mM CoA, 0.15 mM ATP, 5 mM D-luciferin, final concentrations) was added to each well. The plate was incubated at r.t. for 10-15 min. The plates were measured on a ViewLux plate reader for green luminescence (540/20 nm filter) and red luminescence (618/8 nm filter). The green and red luminescent signals were corrected for red and green luminescence filter overlap using previously determined filter calibration constants (determined using the procedure outlined in the Promega Technical Manual; REF 4). The %Activity was determined from the ratio of corrected green/red luminescent values. MG132 were used as control. […] Red luminescent %Activity was normalized to the difference between red luminesence in basal cells (0%Activity) and zero luminescence (-100% Activity). […]
# [1] = measured here: CBR red luminescence, cell number
# [2] = measured here: IkBa-CBG green luminescence
Structure (SMILES),AC50 [1],AC50 [2]
O=C1c2ccccc2C(=O)N1CC(O)Cn1nnc2ccccc21 (configuration not stated),"5.17 µM [rising, partial curve, poor fit]",
COCC(=O)NC1(c2nnnn2CCOC(=O)Nc2ccc(Cl)cc2)CCCCC1,"10 µM [rising, partial curve, poor fit]",
COC(=O)c1ccc(S(=O)(=O)c2ccccc2)c(N)c1,"6.51 µM [falling, single point]",
Cc1ccc(C(=O)NC(=S)Nc2ccc(N3CCOCC3)cc2)cc1,"31.6 µM [rising, single point]",
Cc1nn(Cc2cccc(F)c2)c(C)c1NC(=O)c1ccc(COc2ccccc2Cl)cc1,"9.2 µM [falling, partial curve, poor fit]",
COc1ccc(-n2c(=O)c3ccccc3n(CC(=O)c3ccccc3)c2=O)cc1OC,"6.31 µM [rising, partial curve, poor fit]",
COC(=O)c1ccc(NC(=S)NC2CCCCC2)cc1,"3.55 µM [rising, single point]",
Cc1ccc(S(=O)(=O)N(C)C)cc1NC(=O)COC(=O)CCNS(=O)(=O)c1ccccc1,"29.1 µM [rising, single point]",
O=C(/C=C/c1ccco1)Nc1ccccc1N1CCOCC1,"3.66 µM [rising, full curve, poor fit]",
COc1cc(Br)cc(/C=N/c2ncn[nH]2)c1O,"16.4 µM [falling, single point]",
CCOc1ccc(/C=N/Nc2ccccn2)cc1,"6.31 µM [rising, full curve, poor fit]",
COC(=O)[C@H](CCSC)NC(=O)NCCc1ccccc1F,"0.082 µM [rising, full curve, poor fit]",
Cc1c(C)c2ccc(OCC(=O)Nc3ccccn3)cc2oc1=O,"0.316 µM [rising, full curve, poor fit]",
CC1CCCN(C(=O)CNC(=O)c2cccs2)C1 (configuration not stated),"18.4 µM [falling, single point]",
CCN(CC)c1nc2ccccc2nc1C(=O)Nc1ccc(C(C)=O)cc1,"14.1 µM [falling, partial curve, poor fit]",
Cc1cc(C(=O)Nc2ccccc2C(=O)N2CCCCC2)ccc1[N+](=O)[O-],"15.8 µM [rising, single point]",
Nc1c2c(nn1-c1ccccc1)CCC2,"14.1 µM [falling, single point]",
NC(=O)C1CCN(C(=O)Cc2ccc(-c3ccccc3)cc2)CC1,"0.562 µM [falling, full curve, poor fit]",
O=C1Oc2ccccc2C(=O)/C1=C\N1CCN(c2ccccc2)CC1,"4.47 µM [falling, full curve]",
Cc1ccc(-n2nnnc2SCC(=O)Nc2ccccc2-c2ccccc2)cc1C,"3.26 µM [rising, partial curve, poor fit]",
Cc1c(NC(=O)C(=O)/C=C(/O)c2ccccc2)c(=O)n(-c2ccccc2)n1C,"6.51 µM [rising, single point]",
C/C=C/c1ccc(OCC(=O)O)c(OC)c1,"5.62 µM [rising, partial curve, poor fit]",

# Retrieved by structure from above, three records:
Structure (SMILES),AC50 [1],AC50 [2]
Nc1c2c(nn1-c1ccccc1)CCC2,"14.1 µM [falling, single point]",
C/C=C/c1ccc(OCC(=O)O)c(OC)c1,"5.62 µM [rising, partial curve, poor fit]",
COC(=O)c1ccc(NC(=S)NC2CCCCC2)cc1,"3.55 µM [rising, single point]",

# Sorted by molecular weight (descending): 3 of the compounds above.
Structure (SMILES),AC50 [1],AC50 [2]
Cc1c(NC(=O)C(=O)/C=C(/O)c2ccccc2)c(=O)n(-c2ccccc2)n1C,"6.51 µM [rising, single point]",
Cc1ccc(C(=O)NC(=S)Nc2ccc(N3CCOCC3)cc2)cc1,"31.6 µM [rising, single point]",
CC1CCCN(C(=O)CNC(=O)c2cccs2)C1 (configuration not stated),"18.4 µM [falling, single point]",

# The results go on.

Structure (SMILES),AC50 [1],AC50 [2]
O=C(N/N=C/c1c[nH]c2ccccc12)c1ccn(Cc2ccc(Cl)cc2Cl)n1,"7.94 µM [falling, partial curve]",
COCCCNC(=O)c1cc(Nc2ccc(OC)cc2OC)nc2ccccc12,"11.2 µM [falling, single point]",
O=C(O)c1cccc(-c2ccc(/C=N/NC(=O)c3cccnc3)o2)c1,"9.2 µM [falling, partial curve]",
CCC(=O)N1N=C(c2ccc(NS(=O)(=O)c3ccccc3)cc2)CC1c1ccco1 (configuration not stated),"3.26 µM [rising, partial curve]",
N#CC(C(=O)c1ccccc1Cl)=C1SCCCS1,"20 µM [rising, partial curve, poor fit]",
O=C(/C=C/c1cccc([N+](=O)[O-])c1)Nc1cccc(NC(=O)c2ccco2)c1,"1.84 µM [falling, full curve]",
CCC(=O)Nc1nnc(-c2ccc(Cl)s2)o1,"10 µM [falling, single point]",
CC1=C(C)CC(C(=O)NCc2ccc3c(c2)OCO3)C(C(=O)O)C1 (configuration not stated),"6.51 µM [rising, single point]",
CCn1c(CCCOc2ccc(Cl)cc2Cl)n[nH]c1=S,"5.62 µM [rising, partial curve, poor fit]",
CCOC(=O)c1c(-c2ccccc2)cn2ccccc12,"12.6 µM [rising, partial curve, poor fit]",
CCn1c(=O)cc(OCC(=O)NCc2ccc(C)o2)c2ccccc21,"2.31 µM [rising, partial curve, poor fit]",
COc1cccc(CN(C)C(=O)c2ccc3c(=O)n4c(nc3c2)CCC4)c1,"20.6 µM [falling, partial curve, poor fit]",
O=C(O)c1cccc2sc3cc(Cl)ccc3c(=O)c12,"23.1 µM [rising, single point]",
O=C(OCc1nc2scc(-c3ccccc3)c2c(=O)[nH]1)c1cc([N+](=O)[O-])ccc1Cl,"29.1 µM [falling, single point]",
C=C(C)c1ccc(C(C)(C)NC(=O)N(Cc2ccccc2)Cc2ccco2)cc1,"29.1 µM [rising, single point]",
COc1cccc2cc(C(C)N(CCCN3CCOCC3)C(=S)Nc3ccc(C)c(C)c3)oc12 (configuration not stated),"22.4 µM [falling, single point]",
CCOc1cccc2cc(C(=O)N3CCc4ccccc4C3)c(=O)oc12,"8.2 µM [falling, partial curve, poor fit]",
CC(C)N(C(=O)C1CC(=O)OC12CCCCC2)C(C)C (configuration not stated),"2.06 µM [falling, partial curve]",
COc1cc(CN2CCNC(=O)C2CC(=O)NCc2csc(C(C)C)n2)cc(OC)c1 (configuration not stated),"35.5 µM [falling, single point]",
CCOC(=O)Cc1csc(NC(=O)c2sc3nc4ccc(C)cc4cc3c2N)n1,"11.2 µM [falling, partial curve, poor fit]",
O=C(Cn1c2ccccc2c(=O)c2cc([N+](=O)[O-])ccc21)Nc1ccccc1Cl,"0.58 µM [rising, full curve, poor fit]",
Cc1csc(NC(=O)CSc2nc3sc(C)c(C)c3c(=O)[nH]2)n1,"29.1 µM [falling, single point]",

Structure (SMILES),AC50 [1],AC50 [2]
O=C(CSc1ccc2nnc(-c3cccnc3)n2n1)Nc1ccc(F)cc1,"3.16 µM [falling, single point]",
Cc1ccc(NC2=C/C(=N\S(=O)(=O)c3cccs3)c3ccccc3C2=O)c(C)c1,"5.17 µM [falling, full curve, poor fit]","5.17 µM [rising, full curve]"
O=C(COc1ccc(Cl)cc1Cl)NCC1(N2CCOCC2)CCCCC1,"0.0651 µM [rising, full curve, poor fit]",
CCCOc1ccc(C2=NNC(c3cccs3)=Nc3ccc(OC)cc32)cc1,"32.6 µM [falling, single point]",
Fc1ccc(CNc2nc3ccccc3n3nnnc23)cc1,"3.98 µM [falling, full curve]",
CC(C)c1ccc(/C=C2\SC(=S)N(CCC(=O)NCCCn3ccnc3)C2=O)cc1,"6.31 µM [falling, full curve]",
COc1cccc(C(=O)NNC(=O)C(=O)Nc2cccc3ccccc23)c1,"0.282 µM [falling, full curve, poor fit]",
O=C(NNC1=C(C(=O)C(F)(F)F)CCC1)c1cccc(O)c1,"4.61 µM [falling, partial curve]",
N#C/C(=N\Nc1ccc(Cl)cc1)C(=N)N1CCCCC1,"14.1 µM [falling, single point]",
COc1ccccc1NC(=O)CSc1c2c(nc3ccccc13)CCC2,"23.1 µM [falling, single point]",
Cc1nn(-c2ccccc2)c2sc(C(=O)N(CC(=O)NC(C)(C)C)Cc3ccco3)cc12,"29.1 µM [falling, single point]","32.6 µM [rising, partial curve, poor fit]"
COc1ccc(C(=O)Nc2ccc3c(c2)OCCO3)cc1Br,"35.5 µM [falling, partial curve, poor fit]",
O=C(Nc1ccccc1O)c1cccc(NC(=O)c2ccco2)c1,"14.1 µM [falling, single point]",
O=C(N/N=C/C=C/c1ccccc1)c1cnccn1,"8.2 µM [falling, partial curve]",
O=C(Nn1c(SCc2cccc([N+](=O)[O-])c2)nc2ccccc2c1=O)c1ccccc1,"0.13 µM [rising, full curve, poor fit]",
CC(=O)c1cccc(Nc2nc(-c3cccnc3)cs2)c1,"35.5 µM [falling, single point]",
Cc1ccc(Nc2nc3ccccc3s2)c(C)c1,"0.411 µM [rising, full curve]",
CCc1ccc(C2CC(c3ccccc3)n3ncnc3N2)cc1 (configuration not stated),"3.66 µM [rising, single point]",
O=[N+]([O-])c1ccc(NCCOc2ccccc2Cl)nc1,"0.891 µM [rising, full curve, poor fit]",
COc1ccc(CCNC(=O)c2ccc(-c3ccc([N+](=O)[O-])cc3)o2)cc1OC,"0.731 µM [rising, full curve, poor fit]",
O=C(COC(=O)c1cccnc1Cl)NCc1ccc(F)cc1,"0.184 µM [rising, full curve, poor fit]",
